Measured values: patent publication US10981956B2, “Neuroprotective peptide” (SENJU PHARMACEUTICAL CO., LTD., priority 2016, dated 2021)
At least one peptide structure holds a part that was inferred or is arguable (an end, a ring closure or a residue). Where no end group is shown, it is not given here.

Test system: SH-SY5Y cells
Test: Hypoxia-induced cell death assay of human neuroblastoma SH-SY5Y cells (LDH cytotoxicity detection)
Format: cell-based

Sequence: HPPPPPFQNQQRPP [Peptide 1, HPPPPPFQNQQRPP]
- Rate of suppression of cell death compared with IGF-1 (in words): higher than the rate detected for IGF-1
